Values from PubChem BioAssay AID602196 (INSERM, 2012).

Test: 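Modifiers of cisplatin sensitivity in A549 cells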
System: human A549 lung cancer cells
Reagent: siRNA pair against human genes
Time to read-out: 48 h transfection before cisplatin; time from cisplatin to read-out not stated
Challenge: cisplatin at a dose killing half of control-siRNA cells; exact dose and duration not given
Read-out: 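Shift in cisplatin death relative to control siRNA, from -50 (all cells die) to +50 (no cells die); siRNAs harmful on their own scored 0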
Reading the numbers: two-siRNA summed score (-2 to +2): higher = both siRNAs protect from cisplatin killing; -2 means both sensitise; mean protection from cisplatin (shift in death): higher = protection from cisplatin killing
Rule for the call: 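siRNAs harmful alone (LDH or WST-1) get 0; others get +1 for less and -1 for more cisplatin killing; genes are active when the two siRNAs give the same sign, summing to ±2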
Calls: active = both siRNAs shift cisplatin killing the same way; inactive = no consistent shift, or siRNA harmful alone
This is an unselected part of about 23,000 reagents. Over the whole deposit, 455 (2%) are marked active. 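Active includes both protection and sensitisation; some change values fall well beyond the stated -50 to +50 range.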 Not all columns of the deposit are shown. Reagent sequences are not shown. The record does not give: the amount of reagent.

Silencing of C8orf33 resulted in: two-siRNA summed score (-2 to +2) = 0; mean protection from cisplatin (shift in death) (%) = -5; inactive.
Against PHF12 the deposit lists two-siRNA summed score (-2 to +2) = -1; mean protection from cisplatin (shift in death) (%) = -18.3; inactive.
CENPH showed two-siRNA summed score (-2 to +2) = 0; mean protection from cisplatin (shift in death) (%) = -6.8; inactive.
Depletion of RANBP1P1 gave: two-siRNA summed score (-2 to +2) = 1; mean protection from cisplatin (shift in death) (%) = 4.7; inactive.
Knock-down of PSTPIP1 gave: two-siRNA summed score (-2 to +2) = 0; mean protection from cisplatin (shift in death) (%) = 0.7; inactive.
MAMDC2 showed two-siRNA summed score (-2 to +2) = 0; mean protection from cisplatin (shift in death) (%) = 1.5; inactive.
For SLC39A8, the values are two-siRNA summed score (-2 to +2) = 0; mean protection from cisplatin (shift in death) (%) = 4.3; inactive.
For CCN4, the entry reads two-siRNA summed score (-2 to +2) = 0; mean protection from cisplatin (shift in death) (%) = -17.5; inactive.
With knock-down of DGLUCY, the record shows two-siRNA summed score (-2 to +2) = 0; mean protection from cisplatin (shift in death) (%) = -0.9; inactive.
For IL27, the values are two-siRNA summed score (-2 to +2) = 0; mean protection from cisplatin (shift in death) (%) = 23.5; inactive.
Knock-down of SPX resulted in: two-siRNA summed score (-2 to +2) = 0; mean protection from cisplatin (shift in death) (%) = 2.5; inactive.
Silencing of SMOX gave: two-siRNA summed score (-2 to +2) = 0; mean protection from cisplatin (shift in death) (%) = -17.5; inactive.
With knock-down of FLJ90231 the results were two-siRNA summed score (-2 to +2) = 0; mean protection from cisplatin (shift in death) (%) = 7.2; inactive.
PLAC1 scored two-siRNA summed score (-2 to +2) = 0; mean protection from cisplatin (shift in death) (%) = 21.2; inactive.
Knock-down of LOC440344 gave: two-siRNA summed score (-2 to +2) = -1; mean protection from cisplatin (shift in death) (%) = -4.2; inactive.
With knock-down of KAT2B, the record shows two-siRNA summed score (-2 to +2) = 0; mean protection from cisplatin (shift in death) (%) = -2.9; inactive.
For QSOX1, the values are two-siRNA summed score (-2 to +2) = -1; mean protection from cisplatin (shift in death) (%) = -13.3; inactive.
With knock-down of IQGAP3, the screen gave two-siRNA summed score (-2 to +2) = 1; mean protection from cisplatin (shift in death) (%) = 19.1; inactive.
After knock-down of KIF14, the record shows two-siRNA summed score (-2 to +2) = 0; mean protection from cisplatin (shift in death) (%) = -5.8; inactive.
After knock-down of ZNF70 the results were two-siRNA summed score (-2 to +2) = 1; mean protection from cisplatin (shift in death) (%) = 11.3; inactive.
Silencing of CHST4 gave: two-siRNA summed score (-2 to +2) = 0; mean protection from cisplatin (shift in death) (%) = 6.3; inactive.
With knock-down of SAMD7, the screen gave two-siRNA summed score (-2 to +2) = 0; mean protection from cisplatin (shift in death) (%) = 1.1; inactive.
Against DIAPH3, the entry reads two-siRNA summed score (-2 to +2) = 0; mean protection from cisplatin (shift in death) (%) = 7.3; inactive.
For LOC442119 the deposit lists two-siRNA summed score (-2 to +2) = 0; mean protection from cisplatin (shift in death) (%) = 4.7; inactive.
LACRT gave two-siRNA summed score (-2 to +2) = 1; mean protection from cisplatin (shift in death) (%) = 18.9; inactive.
SMARCD3 showed two-siRNA summed score (-2 to +2) = 0; mean protection from cisplatin (shift in death) (%) = 7.4; inactive.
For ABCA3 the deposit lists two-siRNA summed score (-2 to +2) = 0; mean protection from cisplatin (shift in death) (%) = -13.2; inactive.
Depletion of EI24 came out at: two-siRNA summed score (-2 to +2) = 0; mean protection from cisplatin (shift in death) (%) = 9.9; inactive.
After knock-down of SLC24A1, the screen gave two-siRNA summed score (-2 to +2) = 0; mean protection from cisplatin (shift in death) (%) = 1.7; inactive.
LOC440923 gave two-siRNA summed score (-2 to +2) = 0; mean protection from cisplatin (shift in death) (%) = 2.5; inactive.
For LOC440947 the deposit lists two-siRNA summed score (-2 to +2) = 0; mean protection from cisplatin (shift in death) (%) = 8.8; inactive.
FGFR1 scored two-siRNA summed score (-2 to +2) = 0; mean protection from cisplatin (shift in death) (%) = -4; inactive.
For LOC285346 the deposit lists two-siRNA summed score (-2 to +2) = 0; mean protection from cisplatin (shift in death) (%) = 0.2; inactive.
After knock-down of ATG4C, the screen gave two-siRNA summed score (-2 to +2) = 0; mean protection from cisplatin (shift in death) (%) = 5.3; inactive.
ODR4 gave two-siRNA summed score (-2 to +2) = 0; mean protection from cisplatin (shift in death) (%) = 1; inactive.
With knock-down of OAZ3, the record shows two-siRNA summed score (-2 to +2) = 0; mean protection from cisplatin (shift in death) (%) = -0.1; inactive.
For CBLIF, the values are two-siRNA summed score (-2 to +2) = -1; mean protection from cisplatin (shift in death) (%) = -6.1; inactive.
After knock-down of TAF1D, the screen gave two-siRNA summed score (-2 to +2) = 0; mean protection from cisplatin (shift in death) (%) = 5.8; inactive.
After knock-down of CAPN15 the results were two-siRNA summed score (-2 to +2) = 0; mean protection from cisplatin (shift in death) (%) = 0.5; inactive.
MAPK8IP2 scored two-siRNA summed score (-2 to +2) = -1; mean protection from cisplatin (shift in death) (%) = -7.9; inactive.
